Measurements published in patent US20210330742A1.
Results are given in words; binding and its absence hold for the method and conditions named. In cells and extracts the contact can be indirect. Some results given as binding are weak or reduced against the parent protein; the word gives no strength.

Chains of the proteins cited; added tags and fusions are not shown. Residues count along the entry.
UniProt Q99496, residues 2-336: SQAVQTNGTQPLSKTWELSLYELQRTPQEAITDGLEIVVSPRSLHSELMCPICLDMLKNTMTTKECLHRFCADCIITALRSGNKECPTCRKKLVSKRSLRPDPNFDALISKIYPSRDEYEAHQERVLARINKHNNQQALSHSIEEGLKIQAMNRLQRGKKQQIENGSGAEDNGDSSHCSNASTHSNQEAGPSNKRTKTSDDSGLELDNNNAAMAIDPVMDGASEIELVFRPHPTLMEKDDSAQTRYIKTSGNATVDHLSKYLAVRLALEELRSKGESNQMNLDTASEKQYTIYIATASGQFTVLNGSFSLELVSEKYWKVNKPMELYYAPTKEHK
UniProt P24385: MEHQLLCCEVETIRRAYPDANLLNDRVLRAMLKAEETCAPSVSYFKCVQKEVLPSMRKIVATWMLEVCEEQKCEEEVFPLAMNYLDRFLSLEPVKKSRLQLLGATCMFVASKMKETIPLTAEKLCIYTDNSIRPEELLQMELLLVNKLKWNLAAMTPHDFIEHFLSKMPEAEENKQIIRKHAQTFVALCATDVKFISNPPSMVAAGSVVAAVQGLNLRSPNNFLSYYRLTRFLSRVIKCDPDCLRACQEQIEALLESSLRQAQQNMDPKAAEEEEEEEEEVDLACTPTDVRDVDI

Target: RNF2 (UniProt Q99496)
Test: co-IP and immunoblot, time course after serum stimulation

binding: binds
Substance: Cyclin D1 (from UniProt P24385 1-295)
